Values from PubChem BioAssay AID1159592 (NIAID, 2016)

Purpose: 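Which core TLR components make p65 move nuclear in R848-treated mouse macrophages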
System: RAW264.7 macrophages from mouse bearing reporters for p65 (GFP) and the Tnf promoter (mCherry)
Reagent: single siRNA against mouse genes
Time to read-out: 48 to 72 hours after siRNA transfection
Conditions: R848 TLR ligand for 40 minutes before fixation; dose not given
Measurement: 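Nuclear over cytoplasmic GFP-p65 signal imaged 40 minutes after R848, plate-normalised by median and MAD, given as robust z versus negative controls, mean of replicates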
Direction: NF-kB translocation z-score: higher = more p65 moved into the nucleus than in negative-control wells
Hit rule: 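Active when the replicate-mean z lies above 1.5 or below -1.5; the depositor also grades absolute z in steps of 1, 1.5, 2 and 2.5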
Meaning of the calls: active = strong change, either direction; inactive = little change
The whole screen tested 756 reagents; shown is a random part of them. Over the whole deposit, 147 (19%) got an active call. 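Active covers both loss and gain of p65 entry; negative z means weaker NF-kB activation, positive means more nuclear p65.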 A number with no mark means an inactive call. Reagents against one gene are numbered here. The record does not give: the amount of reagent.

gene knocked down,reagent,"NF-kB translocation z-score, replicate mean"
Ifnar2 (GeneID 15976),1,3.59 (active)
Ifnar2 (GeneID 15976),2,0.41
Ifnar2 (GeneID 15976),3,1.51 (active)
Ifnar2 (GeneID 15976),4,0.176
Ifnar2 (GeneID 15976),5,-0.296
Ifnar2 (GeneID 15976),6,-2.32 (active)
Pik3cd (GeneID 18707),1,0.132
Pik3cd (GeneID 18707),2,-0.728
Pik3cd (GeneID 18707),3,-0.766
Pik3cd (GeneID 18707),4,-0.167
Pik3cd (GeneID 18707),5,-0.0873
Pik3cd (GeneID 18707),6,-0.532
Nfkbib (GeneID 18036),1,-1.3
Nfkbib (GeneID 18036),2,0.17
Nfkbib (GeneID 18036),3,0.88
Nfkbib (GeneID 18036),4,-0.639
Nfkbib (GeneID 18036),5,-1.83 (active)
Nfkbib (GeneID 18036),6,-1.67 (active)
Tlr1 (GeneID 21897),1,0.172
Tlr1 (GeneID 21897),2,-0.582
Tlr1 (GeneID 21897),3,-0.127
Tlr1 (GeneID 21897),4,-0.203
Tlr1 (GeneID 21897),5,-0.223
Tlr1 (GeneID 21897),6,-0.481
Pik3ca (GeneID 18706),1,-1.52 (active)
Pik3ca (GeneID 18706),2,-0.106
Pik3ca (GeneID 18706),3,-0.0134
Pik3ca (GeneID 18706),4,0.146
Pik3ca (GeneID 18706),5,-1.92 (active)
Pik3ca (GeneID 18706),6,-0.488
Irak2 (GeneID 108960),1,-2.88 (active)
Irak2 (GeneID 108960),2,-1.54 (active)
Irak2 (GeneID 108960),3,-3.43 (active)
Irak2 (GeneID 108960),4,-2.5 (active)
Irak2 (GeneID 108960),5,-2.9 (active)
Irak2 (GeneID 108960),6,-3.65 (active)
Tab2 (GeneID 68652),1,-1.23
Tab2 (GeneID 68652),2,-0.801
Tab2 (GeneID 68652),3,0.114
Tab2 (GeneID 68652),4,-0.173
Tab2 (GeneID 68652),5,-0.0143
Tab2 (GeneID 68652),6,-0.105
Cyld (GeneID 74256),1,-0.243
Cyld (GeneID 74256),2,0.28
Cyld (GeneID 74256),3,0.825
Cyld (GeneID 74256),4,-0.887
Cyld (GeneID 74256),5,1.09
Cyld (GeneID 74256),6,0.393
Casp8 (GeneID 12370),1,0.516
Casp8 (GeneID 12370),2,-1.68 (active)
Casp8 (GeneID 12370),3,-1.14
Casp8 (GeneID 12370),4,-0.613
Casp8 (GeneID 12370),5,-2.24 (active)
Casp8 (GeneID 12370),6,0.266
Mapk10 (GeneID 26414),1,0.908
Mapk10 (GeneID 26414),2,-0.118
Mapk10 (GeneID 26414),3,0.00101
Mapk10 (GeneID 26414),4,0.526
Mapk10 (GeneID 26414),5,-0.332
Mapk10 (GeneID 26414),6,0.0428
Itgax (GeneID 16411),1,-0.734
Itgax (GeneID 16411),2,0.269
Itgax (GeneID 16411),3,-1.43
Itgax (GeneID 16411),4,-2.23 (active)
Itgax (GeneID 16411),5,-0.461
Itgax (GeneID 16411),6,0.215
Chuk (GeneID 12675),1,0.554
Chuk (GeneID 12675),2,-2.16 (active)
Chuk (GeneID 12675),3,0.12
Chuk (GeneID 12675),4,-1.94 (active)
Chuk (GeneID 12675),5,-1.73 (active)
Chuk (GeneID 12675),6,1.09
Irf7 (GeneID 54123),1,-0.377
Irf7 (GeneID 54123),2,0.0677
Irf7 (GeneID 54123),3,0.978
Irf7 (GeneID 54123),4,-0.955
Irf7 (GeneID 54123),5,-0.374
Irf7 (GeneID 54123),6,0.46

Entries listed so far whose target name begins with N or n:
gene knocked down,reagent,"NF-kB translocation z-score, replicate mean"
Nfkbib (GeneID 18036),1,-1.3
Nfkbib (GeneID 18036),2,0.17
Nfkbib (GeneID 18036),3,0.88
Nfkbib (GeneID 18036),4,-0.639
Nfkbib (GeneID 18036),5,-1.83 (active)
Nfkbib (GeneID 18036),6,-1.67 (active)
